No constants are given. Whether binding was seen depends on the method and setting. In cells and extracts the contact can be indirect. Some entries that bind do so weakly or less than the wild type.
Molecular target: T1, Acid sphingomyelinase (human (endogenous in naive CD4+ T cells from blood)) (UniProt P17405)
T1 sequence: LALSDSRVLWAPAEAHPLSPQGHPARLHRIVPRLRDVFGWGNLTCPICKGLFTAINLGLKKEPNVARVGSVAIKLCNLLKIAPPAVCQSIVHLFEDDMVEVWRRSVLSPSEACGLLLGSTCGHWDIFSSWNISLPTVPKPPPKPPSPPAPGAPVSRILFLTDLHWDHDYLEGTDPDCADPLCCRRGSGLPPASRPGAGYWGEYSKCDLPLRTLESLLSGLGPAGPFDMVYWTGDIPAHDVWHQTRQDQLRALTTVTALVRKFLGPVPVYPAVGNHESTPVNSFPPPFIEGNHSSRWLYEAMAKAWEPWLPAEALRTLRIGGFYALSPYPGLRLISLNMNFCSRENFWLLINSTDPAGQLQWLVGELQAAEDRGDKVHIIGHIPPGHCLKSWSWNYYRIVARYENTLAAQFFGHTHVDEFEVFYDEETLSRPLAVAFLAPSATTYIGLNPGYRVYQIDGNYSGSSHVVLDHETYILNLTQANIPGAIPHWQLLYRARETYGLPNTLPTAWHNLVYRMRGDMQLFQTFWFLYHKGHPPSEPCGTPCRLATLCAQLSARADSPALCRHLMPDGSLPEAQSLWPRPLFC
Test: co-IP; naive CD4+ T-cell lysates in RIPA buffer (1 mM EDTA, 50 mM Tris-HCl pH 7.4, 150 mM NaCl, 1% NP-40, 0.25% sodium deoxycholate); mouse anti-human ASM antibody 3 h at 4 °C, Protein G-Sepharose 4B; blots for CD3 and CD28; mouse IgG or beads only as capture controls

Sequences of proteins named here, by UniProt entry; tags and fusion partners are left off. Residues count along the entry.
UniProt P10747, residues 19-220: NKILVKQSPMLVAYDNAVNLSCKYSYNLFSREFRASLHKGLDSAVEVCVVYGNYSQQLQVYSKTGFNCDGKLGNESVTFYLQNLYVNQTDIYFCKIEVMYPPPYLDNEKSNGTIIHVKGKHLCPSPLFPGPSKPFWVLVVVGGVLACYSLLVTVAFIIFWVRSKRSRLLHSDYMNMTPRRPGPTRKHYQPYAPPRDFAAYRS

## CD28 (from UniProt P10747 19-220) (receptor)
  binding: binds

From paper PMC4650726
